Reference: patent publication US20210213134A1, “THIOL-BASED MULTIVALENT DRUG DELIVERY COMPOSITIONS” (ORPRO THERAPEUTICS, INC., priority 2018, published 2021)

B1: Azido-C35STRX (conjugate, UniProt P10599 2-105, looked up, variant C35S)
Thioredoxin: VKQIESKTAFQEALDAAGDKLVVVDFSATWCGPSKMIKPFFHSLSEKYSNVIFLEVDVDDCQDVASECEVKCMPTFQFFKKGQKVGEFSGANKEKLEATINELV
modifications: azido group
B2: C35STRX: monocysteinic active site Cys32-Ser35 variant of human thioredoxin-1, mucus-targeting scaffold (protein)
chain: MVKQIESKTAFQEALDAAGDKLVVVDFSATWCGPSKMIKPFFHSLSEKYSNVIFLEVDVDDCQDVASECEVKCMPTFQFFKKGQKVGEFSGANKEKLEATINELV

Experiment: DTNB assay (percent reduction state, free sulfhydryl)
Assay type: physicochemical
Conditions: Table 1; for A412 nm: free SH concentration
Method: C35STRX-antibiotic conjugates are dissolved in PBS to the original volume before lyophilization and assayed for stability over seven days in comparison to non-conjugated reduced C35STRX. C35STRX-antibiotic conjugate concentration is measured by BCA protein assay (Pierce). […] Degradation/aggregation of C35STRX-antibiotic conjugates is determined by the percentage of C35STRX-antibiotic conjugate monomers assayed by SEC using an Agilent 1100 HPLC system and a BioBasic SEC-300 250×4.6 column (ThermoScientific) with a 40 mM Na acetate, 450 mM Na chloride 2 mM EDTA (pH 5.5) buffer at a flow rate 0.350 mL/min and detection by absorbance at 280 nm (A280).
Codon-optimized synthetic oligonucleotides encoding Lys to Ala mutants of C35STRX cloned into vector pD861 (Atum, Newark, Calif.) are expressed solubly in BL21 ΔrhaB E. coli under rhamnose induction (0.1% w/v, 26 deg C.) in APF-LB medium with 0.05% w/v glucose substrate at an O.D.600 of 0.8 in 2.8 L Fernbach shake flasks at NRC (Montreal Canada). Following cell pellet lysis (EmulsiFlex-C3, Avestin, Ottawa Canada) protein is purified from clarified extracts using anion exchange chromatography (FPLC, Akta) and 5 kDa ultrafiltration/diafiltration (UF/DF). Purified C35S(KA)TRX proteins (1 g) reduced with DTT are exchanged into lyophilization buffer prior to an additional UF/DF step under nitrogen to prevent re-oxidation. Physical characterization: C35S(KA)TRX concentration is measured by BCA Protein assay (Pierce).

Molecule | A412 nm OD [OD] | A412 nm [mM]
B1 | 0.40 | 0.61
B2 | 1.22 | 1.85
